{"source": "PubChem BioAssay AID1259276 (Sanger Institute, 2017)", "purpose": "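Find kinases whose silencing cuts viability alone or combined with BYL719, cetuximab or trametinib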 (primary screen)", "cells": "human C2BBe1 colorectal cancer cells", "reagents": "siRNA pool against human genes", "challenge": "DMSO vehicle, or one anchor drug: BYL719 at 1 µM, cetuximab at 5 µg/ml, or trametinib at 10 nM; exposure length not stated", "measurement": "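Cell viability as a fraction of non-targeting control wells, mean of replicates, also as a control-based robust z-score, plus a synergy score for each anchor drug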", "scale": "viability robust z-score, siRNA alone and viability vs control, siRNA alone: higher = more viable cells after knock-down", "hit rule": "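Called essential when knock-down alone gives a viability robust z-score below -3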", "meaning of the calls": "active = essential (siRNA alone); inactive = no change (siRNA alone)", "note": "Shown is an unselected part of 794 deposited reagents. 24 of all reagents (3%) count as active. 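Calls come only from the siRNA-alone arm; drug synergy scores do not affect them.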 Unmarked entries are inactive. Viability is capped at 1. Further read-outs or replicates are left out here. The record does not give: the amount of reagent, the time to read-out."}
{"gene symbol": "GUK1", "viability robust z-score, siRNA alone": 0.472, "viability vs control, siRNA alone": 1}
{"gene symbol": "TK2", "viability robust z-score, siRNA alone": 0.472, "viability vs control, siRNA alone": 1}
{"gene symbol": "CMPK1", "viability robust z-score, siRNA alone": 0.472, "viability vs control, siRNA alone": 1}
{"gene symbol": "AXIN2", "viability robust z-score, siRNA alone": 0.472, "viability vs control, siRNA alone": 1}
{"gene symbol": "ZAP70", "viability robust z-score, siRNA alone": 0.472, "viability vs control, siRNA alone": 1}
{"gene symbol": "MAGI3", "viability robust z-score, siRNA alone": 0.472, "viability vs control, siRNA alone": 1}
{"gene symbol": "EPHB3", "viability robust z-score, siRNA alone": 0.472, "viability vs control, siRNA alone": 1}
{"gene symbol": "RBM10", "viability robust z-score, siRNA alone": 0.472, "viability vs control, siRNA alone": 1}
{"gene symbol": "AURKC", "viability robust z-score, siRNA alone": 0.472, "viability vs control, siRNA alone": 1}
{"gene symbol": "RIPK1", "viability robust z-score, siRNA alone": "-4.27 (active)", "viability vs control, siRNA alone": 0.701}
{"gene symbol": "HSPB8", "viability robust z-score, siRNA alone": -2.9, "viability vs control, siRNA alone": 0.788}
{"gene symbol": "TYRO3", "viability robust z-score, siRNA alone": 0.472, "viability vs control, siRNA alone": 1}
{"gene symbol": "PRKG1", "viability robust z-score, siRNA alone": 0.472, "viability vs control, siRNA alone": 1}
{"gene symbol": "TCF7L2", "viability robust z-score, siRNA alone": 0.472, "viability vs control, siRNA alone": 1}
{"gene symbol": "TSSK6", "viability robust z-score, siRNA alone": 0.445, "viability vs control, siRNA alone": 0.998}
{"gene symbol": "FLT3", "viability robust z-score, siRNA alone": 0.472, "viability vs control, siRNA alone": 1}
{"gene symbol": "MAST3", "viability robust z-score, siRNA alone": 0.472, "viability vs control, siRNA alone": 1}
{"gene symbol": "SMAD4", "viability robust z-score, siRNA alone": -0.632, "viability vs control, siRNA alone": 0.93}
{"gene symbol": "NUAK1", "viability robust z-score, siRNA alone": 0.472, "viability vs control, siRNA alone": 1}
{"gene symbol": "AMHR2", "viability robust z-score, siRNA alone": 0.472, "viability vs control, siRNA alone": 1}
{"gene symbol": "CSNK1A1L", "viability robust z-score, siRNA alone": 0.472, "viability vs control, siRNA alone": 1}
{"gene symbol": "DAPK1", "viability robust z-score, siRNA alone": 0.472, "viability vs control, siRNA alone": 1}
{"gene symbol": "NEK6", "viability robust z-score, siRNA alone": "-3.15 (active)", "viability vs control, siRNA alone": 0.772}
{"gene symbol": "DYRK1B", "viability robust z-score, siRNA alone": 0.472, "viability vs control, siRNA alone": 1}
{"gene symbol": "FBXW7", "viability robust z-score, siRNA alone": 0.472, "viability vs control, siRNA alone": 1}
{"gene symbol": "PRKAR2A", "viability robust z-score, siRNA alone": 0.442, "viability vs control, siRNA alone": 0.998}
{"gene symbol": "PDPK1", "viability robust z-score, siRNA alone": -0.272, "viability vs control, siRNA alone": 0.953}
{"gene symbol": "MAP3K21", "viability robust z-score, siRNA alone": 0.277, "viability vs control, siRNA alone": 0.988}
